Values from PubChem BioAssay AID652243 (Drosophila RNAi Screening Center, 2013)
In all, the deposit lists about 24,000 reagents; below is a random part of those that have a named target and a result. Of all reagents, 246 (1%) are marked active. 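Plates not normalised; calls are printed but the firefly/Renilla ratio behind them is not deposited; fold cut for lowering reported inconsistently.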 Raw values are not corrected between plates. Not given: the amount of reagent.

- Test: 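Knock-downs that decrease or increase androgen receptor reporter signal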 (primary screen)
- System: Drosophila S2R+ cells
- Knock-down reagent: long dsRNA against Drosophila genes
- Time to read-out: 72 h (48 h, then 24 h hormone)
- Challenge: synthetic androgen R1881 at 10 nM for 24 h
- Detection: 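Per-well raw luminescence of the androgen-driven firefly reporter and of the Renilla control, two replicates each, without normalisation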
- Direction: firefly reporter light: higher = more light from androgen-responsive reporter; Renilla control light: higher = more constitutive control signal (cell number, transfection)
- Call rule: 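Hit when the log firefly-to-Renilla ratio dropped or increased by a fixed fold versus the mean of GFP or LacZ controls across duplicate plates; lowering cut given as 1.5 and as 3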
- Calls: active = hit: reporter lowered or raised; inactive = no hit

Target gene	dsRNA	firefly reporter light, replicate 1	firefly reporter light, replicate 2	Renilla control light, replicate 1	Renilla control light, replicate 2	Outcome
CG8303	DRSC07140	57124	53774	1.32e6	1.32e6	inactive
swm (second mitotic wave missing)	DRSC02012	2.95e5	3.87e5	3.21e6	3.04e6	inactive
swm (second mitotic wave missing)	DRSC21831	1.16e5	1.00e5	1.15e6	1.21e6	inactive
mTor (mechanistic Target of rapamycin)	DRSC02811	6.03e5	7.74e5	7.92e5	1.30e6	inactive
mTor (mechanistic Target of rapamycin)	DRSC36734					inactive
mTor (mechanistic Target of rapamycin)	DRSC36735					inactive
Sytalpha (Synaptotagmin alpha)	DRSC02869	2.04e5	2.06e5	2.25e6	2.43e6	inactive
Phb2 (Prohibitin 2)	DRSC06512	4.37e5	5.64e5	3.71e6	4.65e6	inactive
Taf6 (TBP-associated factor 6)	DRSC11299	22719	27094	2.77e5	2.29e5	inactive
CG14434	DRSC17927	2.50e5	3.06e5	2.59e6	3.40e6	inactive
CG34195	DRSC06909	70670	63596	9.68e5	9.68e5	inactive
CkIalpha (Casein kinase Ialpha)	DRSC20231	3.86e5	4.20e5	1.46e6	1.35e6	active
CkIalpha (Casein kinase Ialpha)	DRSC22609	5.62e5	6.03e5	9.04e5	9.15e5	inactive
CkIalpha (Casein kinase Ialpha)	DRSC23308	1.37e6	9.03e5	1.86e6	1.53e6	inactive
CkIalpha (Casein kinase Ialpha)	DRSC25564	5.97e5	3.88e5	3.02e5	3.94e5	active
GluRIIB (Glutamate receptor IIB)	DRSC03335	1.38e5	1.64e5	1.06e6	9.55e5	inactive
GV1	DRSC08228	47689	80542	1.34e6	1.53e6	inactive
GV1	DRSC25953	3.30e5	3.61e5	6.37e5	5.96e5	inactive
CG6171	DRSC15982	95036	64258	6.09e5	5.43e5	inactive
CG34457	DRSC06924	63821	92871	1.01e6	1.01e6	inactive
CG10298	DRSC12522	1.19e5	1.03e5	2.28e6	1.20e6	inactive
CG10298	DRSC25489	1.05e6	6.01e5	1.07e6	8.05e5	inactive
Sin1 (SAPK-interacting protein 1)	DRSC05965	1.20e6	1.39e6	2.08e6	2.41e6	inactive
CG31926	DRSC00295	83162	1.41e5	6.22e5	8.97e5	inactive
CG31926	DRSC29022	5.82e5	3.17e5	1.95e6	1.56e6	inactive
mthl7 (methuselah-like 7)	DRSC10852	1.68e5	1.56e5	1.18e6	1.12e6	inactive
CG15919	DRSC06594	2.34e5	2.91e5	2.98e6	3.58e6	inactive
Etl1	DRSC02911	1.22e6	1.09e6	1.98e6	2.19e6	inactive
CG30423	DRSC04013	1.21e5	93647	2.08e5	1.96e5	inactive
Targ2 (Terminal ADP-ribose protein glycohydrolase 2)	DRSC21970	7.59e5	7.14e5	1.52e6	1.46e6	inactive
dysf (dysfusion)	DRSC14529	1.46e5	1.64e5	3.26e6	3.03e6	inactive
dysf (dysfusion)	DRSC14895	2.75e5	2.75e5	2.12e6	1.84e6	inactive
dysf (dysfusion)	DRSC14896	1.91e5	1.89e5	2.70e6	1.93e6	inactive
CG42260	DRSC04172	3.45e5	2.91e5	2.22e6	1.86e6	inactive
CG42260	DRSC04385	3.03e5	2.96e5	2.02e6	2.47e6	inactive
chif (chiffon)	DRSC03508	1.07e6	1.10e6	1.54e6	1.79e6	inactive
Ncoa6 (Nuclear receptor coactivator 6)	DRSC23060	5.76e5	8.70e5	1.27e6	1.84e6	inactive
Ncoa6 (Nuclear receptor coactivator 6)	DRSC25819	2.00e5	2.13e5	4.29e5	3.91e5	inactive
SREBP (Sterol regulatory element binding protein)	DRSC11182	2.12e5	1.12e5	2.39e6	1.38e6	inactive
CG5065	DRSC06912	77399	72102	1.64e6	1.64e6	inactive

2 entries from above in another layout.
Target gene | dsRNA | firefly reporter light, replicate 1 | firefly reporter light, replicate 2 | Renilla control light, replicate 1 | Renilla control light, replicate 2 | Outcome
CG34195 | DRSC06909 | 70670 | 63596 | 9.68e5 | 9.68e5 | inactive
CkIalpha (Casein kinase Ialpha) | DRSC20231 | 3.86e5 | 4.20e5 | 1.46e6 | 1.35e6 | active
